Measured values from article PMC9870083.
These are yes or no findings as the source states them, for the method shown. Binding seen in cells or lysates may run through a third protein. Some results given as binding are weak or reduced against the parent protein; the word gives no strength. Tags and fused reporters may be left off the sequences shown.

By UniProt entry, the sequences of proteins in these tests, tags left out.
UniProt Q04206: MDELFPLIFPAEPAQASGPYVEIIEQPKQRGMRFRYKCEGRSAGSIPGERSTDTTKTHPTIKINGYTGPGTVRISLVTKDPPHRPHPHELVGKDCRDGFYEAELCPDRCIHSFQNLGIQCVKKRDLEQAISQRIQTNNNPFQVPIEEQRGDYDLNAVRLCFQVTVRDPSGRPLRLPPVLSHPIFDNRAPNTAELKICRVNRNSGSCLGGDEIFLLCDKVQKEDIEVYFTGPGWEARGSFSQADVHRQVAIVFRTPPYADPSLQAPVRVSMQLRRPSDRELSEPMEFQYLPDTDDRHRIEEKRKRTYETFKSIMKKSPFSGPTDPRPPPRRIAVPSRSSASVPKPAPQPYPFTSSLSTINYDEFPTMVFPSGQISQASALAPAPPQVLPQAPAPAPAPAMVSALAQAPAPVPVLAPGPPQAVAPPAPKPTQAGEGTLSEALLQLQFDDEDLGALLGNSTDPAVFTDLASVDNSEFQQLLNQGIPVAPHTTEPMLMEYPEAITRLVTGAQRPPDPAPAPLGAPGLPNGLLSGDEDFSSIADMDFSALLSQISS

Columns and labels:
[1] = biological target: T1, Flag-tagged retinoic acid receptor β2 (RARβ2) (UniProt P10826); test: co-IP; cotransfected cells lysed in RIPA buffer; 2 μg Flag antibody for 500 μg total whole-cell lysate for each IP; immunoblot; HEK293T, 48 hours after transfection for Figure 6E
T1 sequence: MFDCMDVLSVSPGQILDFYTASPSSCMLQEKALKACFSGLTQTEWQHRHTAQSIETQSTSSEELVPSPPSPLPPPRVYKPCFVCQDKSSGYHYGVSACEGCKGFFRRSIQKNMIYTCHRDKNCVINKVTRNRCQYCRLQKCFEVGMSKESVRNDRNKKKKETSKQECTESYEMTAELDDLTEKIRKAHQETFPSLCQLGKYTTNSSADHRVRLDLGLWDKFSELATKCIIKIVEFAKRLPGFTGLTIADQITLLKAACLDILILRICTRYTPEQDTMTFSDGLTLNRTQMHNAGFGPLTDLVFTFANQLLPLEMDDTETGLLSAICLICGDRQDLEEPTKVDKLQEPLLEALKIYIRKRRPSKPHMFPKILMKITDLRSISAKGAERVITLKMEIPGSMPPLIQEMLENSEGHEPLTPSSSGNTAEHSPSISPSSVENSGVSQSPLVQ

[2] = biological target: T2, Flag-tagged retinoic acid receptor β4 (RARβ4) (UniProt P10826); test: as above
T2 sequence: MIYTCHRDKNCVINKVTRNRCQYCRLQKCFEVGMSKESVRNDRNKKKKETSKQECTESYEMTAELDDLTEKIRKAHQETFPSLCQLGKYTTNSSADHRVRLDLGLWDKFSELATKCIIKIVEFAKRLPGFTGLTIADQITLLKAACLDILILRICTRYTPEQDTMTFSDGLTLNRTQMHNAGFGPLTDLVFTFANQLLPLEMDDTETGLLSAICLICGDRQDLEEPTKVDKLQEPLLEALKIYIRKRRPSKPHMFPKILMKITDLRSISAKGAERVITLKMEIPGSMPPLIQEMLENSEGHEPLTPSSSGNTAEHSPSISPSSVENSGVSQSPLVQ

Substance: myc-tagged RelA/p65 (from UniProt Q04206 1-551)
- binding [1]: binds
- binding [2]: binds
